For experiment [1], the target named is CNOT1 (human (endogenous in HeLa, Ad5E1HEK293, Ad12E1HER2)) (UniProt A5YKK6). The experiment is described as follows: co-IP; Ad5E1HEK293 and Ad12E1HER2 lysates (500 ug total protein) immunoprecipitated with antibody against CNOT1 (controls: collagen IV antibody, IgG); Western blot for Ad5E1B55K and Ad12E1B55K.
Experiment [2] has as its target Tankyrase 1 binding protein 1 (TNKS1BP1, Tab182), endogenous (human (endogenous in Ad5E1HEK293, Ad12E1HER2, HeLa, HEK293FT)) (UniProt Q9C0C2). The experiment is described as follows: co-IP.
The target of a further experiment is GST-PRMT1 (UniProt Q99873). Put plainly: pull-down; only the target purified.
Experiment [3] deals with Adenovirus serotype 5 early region 1B55K protein (Ad5E1B55K) (adenovirus serotype 5) (UniProt P03243). Put plainly: co-IP.
For experiment [4], the target named is Adenovirus serotype 12 early region 1B55K protein (Ad12E1B55K) (adenovirus serotype 12) (UniProt P04491). The experiment is described as follows: co-IP.

By UniProt entry, the sequences of proteins in these tests, tags left out.
UniProt A5YKK6: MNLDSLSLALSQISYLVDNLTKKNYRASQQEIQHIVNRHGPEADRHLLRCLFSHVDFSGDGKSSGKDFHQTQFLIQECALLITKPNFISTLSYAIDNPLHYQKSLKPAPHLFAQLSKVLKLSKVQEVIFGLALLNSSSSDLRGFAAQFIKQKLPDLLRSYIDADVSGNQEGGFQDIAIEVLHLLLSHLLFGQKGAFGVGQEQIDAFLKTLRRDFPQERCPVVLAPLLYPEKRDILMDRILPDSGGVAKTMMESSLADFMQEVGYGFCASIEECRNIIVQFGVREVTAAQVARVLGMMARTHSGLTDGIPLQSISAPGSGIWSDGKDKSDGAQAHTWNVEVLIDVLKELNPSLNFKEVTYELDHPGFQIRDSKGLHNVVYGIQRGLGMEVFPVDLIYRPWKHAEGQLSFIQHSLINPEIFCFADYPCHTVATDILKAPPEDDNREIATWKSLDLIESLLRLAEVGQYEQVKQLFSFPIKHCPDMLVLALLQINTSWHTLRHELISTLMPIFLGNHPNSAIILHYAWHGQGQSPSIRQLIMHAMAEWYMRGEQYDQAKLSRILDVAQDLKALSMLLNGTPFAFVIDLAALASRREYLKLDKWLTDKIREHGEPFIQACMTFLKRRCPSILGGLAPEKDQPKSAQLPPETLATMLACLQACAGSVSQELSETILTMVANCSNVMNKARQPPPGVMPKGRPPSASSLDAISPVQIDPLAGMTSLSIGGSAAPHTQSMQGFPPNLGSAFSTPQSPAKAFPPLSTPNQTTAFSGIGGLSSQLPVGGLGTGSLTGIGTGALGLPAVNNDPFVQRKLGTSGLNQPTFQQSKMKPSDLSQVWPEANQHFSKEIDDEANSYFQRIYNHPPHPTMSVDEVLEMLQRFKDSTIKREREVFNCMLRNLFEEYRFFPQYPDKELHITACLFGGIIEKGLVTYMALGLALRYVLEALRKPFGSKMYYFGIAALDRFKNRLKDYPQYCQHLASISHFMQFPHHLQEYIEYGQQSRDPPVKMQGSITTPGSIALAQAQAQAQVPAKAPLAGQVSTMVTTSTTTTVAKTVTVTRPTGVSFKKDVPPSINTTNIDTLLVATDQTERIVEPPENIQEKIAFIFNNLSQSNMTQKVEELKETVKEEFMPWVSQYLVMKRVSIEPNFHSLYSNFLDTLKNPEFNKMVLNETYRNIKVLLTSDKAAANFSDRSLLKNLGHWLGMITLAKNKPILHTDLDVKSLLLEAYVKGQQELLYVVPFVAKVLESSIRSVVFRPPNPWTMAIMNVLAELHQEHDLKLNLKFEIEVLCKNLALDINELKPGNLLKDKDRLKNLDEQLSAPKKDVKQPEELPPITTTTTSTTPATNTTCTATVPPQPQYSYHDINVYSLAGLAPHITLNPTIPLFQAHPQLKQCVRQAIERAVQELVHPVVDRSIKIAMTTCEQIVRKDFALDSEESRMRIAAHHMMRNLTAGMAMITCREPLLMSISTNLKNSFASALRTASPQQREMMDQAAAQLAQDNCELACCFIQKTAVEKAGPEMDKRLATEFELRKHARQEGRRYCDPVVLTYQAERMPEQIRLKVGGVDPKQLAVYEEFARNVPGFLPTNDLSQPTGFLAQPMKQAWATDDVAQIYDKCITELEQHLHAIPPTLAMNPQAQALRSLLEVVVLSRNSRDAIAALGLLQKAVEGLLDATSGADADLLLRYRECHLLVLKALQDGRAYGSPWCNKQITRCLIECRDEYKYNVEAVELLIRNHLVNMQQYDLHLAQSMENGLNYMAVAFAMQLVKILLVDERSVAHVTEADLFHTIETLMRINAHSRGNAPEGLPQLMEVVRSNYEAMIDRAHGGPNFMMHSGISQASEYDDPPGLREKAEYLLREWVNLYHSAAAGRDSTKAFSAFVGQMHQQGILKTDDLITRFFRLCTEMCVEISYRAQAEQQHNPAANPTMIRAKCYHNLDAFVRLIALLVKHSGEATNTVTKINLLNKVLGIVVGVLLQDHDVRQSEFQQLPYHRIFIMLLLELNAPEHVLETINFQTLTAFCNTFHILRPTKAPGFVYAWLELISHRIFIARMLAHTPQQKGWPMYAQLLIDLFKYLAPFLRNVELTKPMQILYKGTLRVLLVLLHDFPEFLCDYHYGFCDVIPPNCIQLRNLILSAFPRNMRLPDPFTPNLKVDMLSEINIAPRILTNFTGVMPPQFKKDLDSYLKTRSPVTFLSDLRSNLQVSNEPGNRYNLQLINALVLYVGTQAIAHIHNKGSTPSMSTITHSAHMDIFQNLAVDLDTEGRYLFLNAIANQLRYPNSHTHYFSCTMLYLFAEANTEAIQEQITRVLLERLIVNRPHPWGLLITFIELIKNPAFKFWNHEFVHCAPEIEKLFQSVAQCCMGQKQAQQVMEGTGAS
UniProt Q9C0C2: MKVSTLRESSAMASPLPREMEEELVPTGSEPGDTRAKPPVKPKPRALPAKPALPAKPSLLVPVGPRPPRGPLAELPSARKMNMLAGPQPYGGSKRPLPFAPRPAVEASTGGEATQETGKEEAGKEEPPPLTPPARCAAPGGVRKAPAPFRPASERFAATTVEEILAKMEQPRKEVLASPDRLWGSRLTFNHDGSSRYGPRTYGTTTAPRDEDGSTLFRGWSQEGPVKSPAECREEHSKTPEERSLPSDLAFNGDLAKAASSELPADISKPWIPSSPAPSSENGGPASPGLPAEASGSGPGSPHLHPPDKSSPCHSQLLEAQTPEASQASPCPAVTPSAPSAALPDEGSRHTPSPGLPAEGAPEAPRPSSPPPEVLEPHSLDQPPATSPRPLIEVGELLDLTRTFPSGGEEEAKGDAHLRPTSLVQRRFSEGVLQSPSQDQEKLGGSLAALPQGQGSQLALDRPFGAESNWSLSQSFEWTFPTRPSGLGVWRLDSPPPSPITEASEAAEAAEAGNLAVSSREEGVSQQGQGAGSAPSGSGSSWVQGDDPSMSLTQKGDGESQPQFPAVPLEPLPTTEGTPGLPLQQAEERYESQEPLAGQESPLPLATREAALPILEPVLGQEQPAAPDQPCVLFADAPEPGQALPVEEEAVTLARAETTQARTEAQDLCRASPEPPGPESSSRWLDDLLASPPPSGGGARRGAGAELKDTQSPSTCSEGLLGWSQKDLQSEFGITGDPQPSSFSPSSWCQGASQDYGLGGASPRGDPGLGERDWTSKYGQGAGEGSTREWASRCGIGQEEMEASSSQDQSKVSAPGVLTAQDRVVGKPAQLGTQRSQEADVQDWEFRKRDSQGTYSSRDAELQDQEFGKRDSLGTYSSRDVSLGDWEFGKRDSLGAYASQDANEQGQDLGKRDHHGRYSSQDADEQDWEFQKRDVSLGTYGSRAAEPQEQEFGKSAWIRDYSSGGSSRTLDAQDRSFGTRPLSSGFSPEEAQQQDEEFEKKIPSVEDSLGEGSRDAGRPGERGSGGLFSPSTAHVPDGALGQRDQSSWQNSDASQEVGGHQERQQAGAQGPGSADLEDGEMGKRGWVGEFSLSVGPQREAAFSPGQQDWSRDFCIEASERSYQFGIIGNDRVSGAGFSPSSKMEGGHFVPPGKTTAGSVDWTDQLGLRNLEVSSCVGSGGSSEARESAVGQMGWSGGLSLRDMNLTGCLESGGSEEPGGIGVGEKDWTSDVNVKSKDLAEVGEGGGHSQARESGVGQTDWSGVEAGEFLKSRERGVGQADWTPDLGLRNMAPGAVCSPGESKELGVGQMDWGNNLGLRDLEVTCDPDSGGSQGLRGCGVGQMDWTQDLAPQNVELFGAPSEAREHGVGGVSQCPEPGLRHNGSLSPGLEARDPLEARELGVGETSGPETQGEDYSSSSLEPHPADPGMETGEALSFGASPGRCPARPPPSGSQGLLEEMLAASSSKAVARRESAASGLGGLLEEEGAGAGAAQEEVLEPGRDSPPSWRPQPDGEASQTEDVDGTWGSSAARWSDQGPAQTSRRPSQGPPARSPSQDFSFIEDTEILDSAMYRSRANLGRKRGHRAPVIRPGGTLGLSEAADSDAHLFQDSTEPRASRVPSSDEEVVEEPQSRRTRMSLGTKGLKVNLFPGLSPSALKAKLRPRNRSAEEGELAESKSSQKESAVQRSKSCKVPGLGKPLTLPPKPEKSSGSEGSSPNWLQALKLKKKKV
UniProt Q99873: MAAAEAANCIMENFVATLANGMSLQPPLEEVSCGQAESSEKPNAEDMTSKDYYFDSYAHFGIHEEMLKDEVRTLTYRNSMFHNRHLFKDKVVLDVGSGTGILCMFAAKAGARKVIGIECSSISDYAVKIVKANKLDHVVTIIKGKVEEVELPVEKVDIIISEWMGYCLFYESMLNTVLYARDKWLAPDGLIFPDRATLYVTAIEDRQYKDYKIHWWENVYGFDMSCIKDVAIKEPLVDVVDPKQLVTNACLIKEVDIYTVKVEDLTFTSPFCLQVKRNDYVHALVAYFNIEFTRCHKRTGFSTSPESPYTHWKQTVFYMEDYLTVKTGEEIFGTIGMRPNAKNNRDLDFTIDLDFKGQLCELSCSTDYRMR
UniProt P03243: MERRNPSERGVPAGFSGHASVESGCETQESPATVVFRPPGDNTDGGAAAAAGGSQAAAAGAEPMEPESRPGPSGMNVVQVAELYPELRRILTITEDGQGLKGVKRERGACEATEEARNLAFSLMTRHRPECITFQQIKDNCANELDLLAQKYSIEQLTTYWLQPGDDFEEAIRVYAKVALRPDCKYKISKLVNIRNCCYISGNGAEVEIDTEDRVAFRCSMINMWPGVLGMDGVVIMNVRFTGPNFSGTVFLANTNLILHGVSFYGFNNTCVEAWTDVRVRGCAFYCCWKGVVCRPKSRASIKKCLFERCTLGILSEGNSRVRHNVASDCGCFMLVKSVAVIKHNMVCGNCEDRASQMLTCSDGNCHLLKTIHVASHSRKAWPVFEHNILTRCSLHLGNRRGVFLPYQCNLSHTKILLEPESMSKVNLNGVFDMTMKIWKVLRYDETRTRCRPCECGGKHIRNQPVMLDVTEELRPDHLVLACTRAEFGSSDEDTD
UniProt P04491: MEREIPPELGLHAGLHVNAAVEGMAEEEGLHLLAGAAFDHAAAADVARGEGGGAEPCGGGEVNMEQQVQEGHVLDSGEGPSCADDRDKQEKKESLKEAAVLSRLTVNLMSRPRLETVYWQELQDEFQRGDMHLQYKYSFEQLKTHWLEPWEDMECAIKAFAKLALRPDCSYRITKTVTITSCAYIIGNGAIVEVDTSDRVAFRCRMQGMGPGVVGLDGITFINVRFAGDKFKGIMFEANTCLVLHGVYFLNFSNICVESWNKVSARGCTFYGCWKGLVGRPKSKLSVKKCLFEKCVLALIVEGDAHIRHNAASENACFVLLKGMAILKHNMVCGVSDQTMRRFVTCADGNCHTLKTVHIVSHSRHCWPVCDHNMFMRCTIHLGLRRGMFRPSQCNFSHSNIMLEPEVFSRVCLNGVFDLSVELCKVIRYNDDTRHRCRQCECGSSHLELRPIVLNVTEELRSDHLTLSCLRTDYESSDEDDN

No constants are given. Whether binding was seen depends on the method and setting. In cells and extracts the contact can be indirect. Some entries that bind do so weakly or less than the wild type.

Regarding “Adenovirus serotype 12 early region 1B55K protein (Ad12E1B55K) (from UniProt P04491 1-482)”, the binding entry is reported as “binds” in experiment [1], “binds” in experiment [2] and “no binding” with GST-PRMT1.

Consider “Adenovirus serotype 5 early region 1B55K protein (Ad5E1B55K) (from UniProt P03243 1-496)”, for which the results for the binding result (in experiment [1]; in experiment [2]; with GST-PRMT1) were “binds”, “binds” and “no binding”, respectively.

For the substance “Tankyrase 1 binding protein 1 (TNKS1BP1, Tab182), endogenous (from UniProt Q9C0C2 1-1729)”, the binding result in experiment [3] and in experiment [4] was “binds” throughout.

These data come from PMC5974482.
